Results published in ChEMBL document CHEMBL1147558, “Discovery of novel nonsteroidal glucocorticoid receptor modulators” (Bioorg Med Chem Lett, 2004).

Assays:
Androgen receptor = target: T1, Androgen receptor (Homo sapiens, UniProt P10275)
T1 sequence (P10275 whole entry): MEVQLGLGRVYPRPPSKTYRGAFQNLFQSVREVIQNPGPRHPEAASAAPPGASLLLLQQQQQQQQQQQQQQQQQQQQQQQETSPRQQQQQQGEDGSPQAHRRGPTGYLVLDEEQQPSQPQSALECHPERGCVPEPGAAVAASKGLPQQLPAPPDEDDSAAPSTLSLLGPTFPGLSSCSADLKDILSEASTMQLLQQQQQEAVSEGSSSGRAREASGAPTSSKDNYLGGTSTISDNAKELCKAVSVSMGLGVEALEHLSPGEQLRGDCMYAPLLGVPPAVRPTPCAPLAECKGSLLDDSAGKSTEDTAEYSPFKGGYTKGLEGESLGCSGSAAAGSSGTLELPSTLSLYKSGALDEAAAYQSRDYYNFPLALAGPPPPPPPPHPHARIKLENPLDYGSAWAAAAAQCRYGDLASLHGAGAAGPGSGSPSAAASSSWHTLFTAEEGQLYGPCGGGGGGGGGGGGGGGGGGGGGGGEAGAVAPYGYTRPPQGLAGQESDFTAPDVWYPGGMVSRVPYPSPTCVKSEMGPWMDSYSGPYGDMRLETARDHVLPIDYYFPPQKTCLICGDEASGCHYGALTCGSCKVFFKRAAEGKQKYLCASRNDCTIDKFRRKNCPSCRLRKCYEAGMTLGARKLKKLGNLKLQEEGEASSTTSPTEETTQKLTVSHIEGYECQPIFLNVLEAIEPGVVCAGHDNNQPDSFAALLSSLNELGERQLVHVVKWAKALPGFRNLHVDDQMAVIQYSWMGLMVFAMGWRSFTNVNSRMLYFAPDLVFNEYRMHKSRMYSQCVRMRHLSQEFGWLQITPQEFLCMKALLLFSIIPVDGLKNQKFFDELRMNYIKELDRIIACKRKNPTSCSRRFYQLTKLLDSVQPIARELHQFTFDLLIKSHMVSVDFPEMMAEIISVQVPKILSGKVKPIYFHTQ

[1] = target: T2, Mineralocorticoid receptor (Homo sapiens, UniProt P08235)
T2 sequence (P08235 whole entry): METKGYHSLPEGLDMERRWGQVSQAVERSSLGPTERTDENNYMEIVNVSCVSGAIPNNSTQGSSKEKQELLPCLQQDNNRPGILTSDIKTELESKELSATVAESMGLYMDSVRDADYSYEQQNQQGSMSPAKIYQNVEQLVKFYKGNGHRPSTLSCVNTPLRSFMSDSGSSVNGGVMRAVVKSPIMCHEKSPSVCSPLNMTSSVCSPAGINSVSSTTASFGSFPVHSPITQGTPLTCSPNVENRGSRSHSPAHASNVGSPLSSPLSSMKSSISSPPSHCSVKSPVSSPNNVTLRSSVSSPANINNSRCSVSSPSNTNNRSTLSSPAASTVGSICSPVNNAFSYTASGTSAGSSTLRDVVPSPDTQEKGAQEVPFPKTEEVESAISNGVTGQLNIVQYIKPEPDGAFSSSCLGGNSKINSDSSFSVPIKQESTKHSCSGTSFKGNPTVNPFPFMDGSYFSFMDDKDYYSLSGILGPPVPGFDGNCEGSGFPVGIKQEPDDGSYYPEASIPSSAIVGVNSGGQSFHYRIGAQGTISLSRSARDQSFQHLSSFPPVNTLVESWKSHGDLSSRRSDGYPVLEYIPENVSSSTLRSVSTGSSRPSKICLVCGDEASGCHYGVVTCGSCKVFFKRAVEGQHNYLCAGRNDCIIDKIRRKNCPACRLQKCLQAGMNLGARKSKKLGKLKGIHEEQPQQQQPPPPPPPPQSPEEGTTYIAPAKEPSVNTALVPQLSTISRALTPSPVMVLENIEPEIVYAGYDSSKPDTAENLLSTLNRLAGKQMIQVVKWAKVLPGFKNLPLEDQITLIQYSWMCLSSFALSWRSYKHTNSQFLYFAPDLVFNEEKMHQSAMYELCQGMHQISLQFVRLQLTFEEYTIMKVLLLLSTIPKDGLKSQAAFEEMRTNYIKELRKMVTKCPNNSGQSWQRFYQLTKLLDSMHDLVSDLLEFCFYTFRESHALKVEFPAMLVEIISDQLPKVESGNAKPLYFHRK

Progesterone receptor = target: T3, Progesterone receptor (Homo sapiens, UniProt P06401)
T3 sequence (P06401 whole entry): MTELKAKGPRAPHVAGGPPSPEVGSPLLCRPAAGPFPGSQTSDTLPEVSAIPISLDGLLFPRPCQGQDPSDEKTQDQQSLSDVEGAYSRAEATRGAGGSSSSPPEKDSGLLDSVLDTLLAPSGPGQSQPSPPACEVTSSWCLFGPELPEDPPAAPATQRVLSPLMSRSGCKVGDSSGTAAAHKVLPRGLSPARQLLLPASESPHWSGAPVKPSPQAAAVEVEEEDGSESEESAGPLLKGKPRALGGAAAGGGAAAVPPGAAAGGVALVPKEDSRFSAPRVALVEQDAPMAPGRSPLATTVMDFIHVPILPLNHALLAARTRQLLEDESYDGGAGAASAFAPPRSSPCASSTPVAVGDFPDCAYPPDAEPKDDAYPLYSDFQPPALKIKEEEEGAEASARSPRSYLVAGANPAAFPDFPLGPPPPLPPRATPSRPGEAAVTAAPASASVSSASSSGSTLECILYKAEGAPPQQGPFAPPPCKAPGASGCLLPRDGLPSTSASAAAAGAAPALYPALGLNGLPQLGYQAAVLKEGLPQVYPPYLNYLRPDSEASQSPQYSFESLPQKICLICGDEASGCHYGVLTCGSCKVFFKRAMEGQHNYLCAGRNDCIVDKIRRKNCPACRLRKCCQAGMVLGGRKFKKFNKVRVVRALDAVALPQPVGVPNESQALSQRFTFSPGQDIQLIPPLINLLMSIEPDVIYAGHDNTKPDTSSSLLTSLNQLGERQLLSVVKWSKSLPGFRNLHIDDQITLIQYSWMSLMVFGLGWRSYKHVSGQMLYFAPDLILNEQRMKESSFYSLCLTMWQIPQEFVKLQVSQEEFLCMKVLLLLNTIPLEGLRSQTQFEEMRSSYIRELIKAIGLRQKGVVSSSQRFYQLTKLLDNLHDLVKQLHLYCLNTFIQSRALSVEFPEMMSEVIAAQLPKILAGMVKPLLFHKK

in vivo = details: Sprague-Dawley, rat, po

Row | SMILES | IC50 (Androgen receptor) [nM] | IC50 [1] [nM] | IC50 (Progesterone receptor) [nM] | bioavailability (in vivo) [%]
1 | Cc1c(NS(C)(=O)=O)cccc1N(Cc1ccccc1)Cc1ccc(Cl)cc1F | 300 | 4000 | 790 | –
2 | Cc1c(NS(C)(=O)=O)cccc1N(Cc1ccccc1)Cc1ccccc1 | – | – | – | 5
